Measurements: publication PMC10476552

The chains behind the UniProt entries cited, without tags or fusion partners.
UniProt Q9Y3D8: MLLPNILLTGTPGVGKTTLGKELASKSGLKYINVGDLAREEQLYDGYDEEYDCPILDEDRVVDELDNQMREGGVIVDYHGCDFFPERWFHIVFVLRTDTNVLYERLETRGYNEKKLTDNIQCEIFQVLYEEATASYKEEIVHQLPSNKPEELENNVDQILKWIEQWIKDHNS
UniProt Q8N726: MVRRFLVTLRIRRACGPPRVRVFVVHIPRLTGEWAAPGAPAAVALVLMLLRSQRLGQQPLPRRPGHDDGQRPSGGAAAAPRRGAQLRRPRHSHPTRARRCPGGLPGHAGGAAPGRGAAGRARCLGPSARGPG

Target: Flag-hCINAP (human coilin-interacting nuclear ATPase protein) (human) (UniProt Q9Y3D8)
Assay: affinity purification with mass spectrometry; IP-mass spectrometry using HEK293T cells transfected with Flag-hCINAP

binding: binds
Substance: endogenous p14ARF (from UniProt Q8N726 1-132)

These are yes or no findings as the source states them, for the method shown. In cells and extracts the contact can be indirect. A yes stands for co-enrichment or nearness to the bait. Other partners may have been found.
